Data as given in PubChem BioAssay AID1259405 (NCATS, 2018).

Screen: 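Mouse-designed siRNAs used to find CHO productivity engineering targets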 (primary screen)
Cells: Chinese hamster CHO-K1 ovary cells with stable secreted eGFP expression
Knock-down reagent: single siRNA against mouse genes, 0.8 pmol siRNA per well (2 µl of 400 nM stock)
Time to read-out: 3 days
Read-out: 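Percent of the per-plate non-targeting control median for intracellular GFP per well by laser scanning cytometry and for cell viability by ATP luminescence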
Reading the numbers: GFP, % of control: higher = more GFP per well, higher productivity; viability (ATP), % of control: higher = more viable cells (more ATP)
Active means: 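a knock-down is called active if GFP reaches 120% or more of non-targeting control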
In all, the deposit lists about 50,000 reagents; this is an unselected part. About 4,000 of all reagents (8%) were called active. 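Mouse siRNA library applied to hamster cells; one well for each siRNA.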 Reagents against one gene are numbered here. Reagent sequences are not shown.

| gene knocked down | siRNA no. | GFP, % of control | viability (ATP), % of control | call |
| --- | --- | --- | --- | --- |
| Tmed3 (transmembrane p24 trafficking protein 3) | 1 | 62.3 | 68.8 | inactive |
| Tmed3 (transmembrane p24 trafficking protein 3) | 2 | 86.4 | 84.5 | inactive |
| Tmed3 (transmembrane p24 trafficking protein 3) | 3 | 116 | 70.3 | inactive |
| Alx3 (aristaless-like homeobox 3) | 1 | 104 | 90.7 | inactive |
| Alx3 (aristaless-like homeobox 3) | 2 | 89.9 | 57.3 | inactive |
| Alx3 (aristaless-like homeobox 3) | 3 | 115 | 80.9 | inactive |
| Tas2r113 (taste receptor, type 2, member 113) | 1 | 44.1 | 53.1 | inactive |
| Tas2r113 (taste receptor, type 2, member 113) | 2 | 81 | 89.5 | inactive |
| Tas2r113 (taste receptor, type 2, member 113) | 3 | 65.2 | 84.5 | inactive |
| Etv6 (ets variant 6) | 1 | 99.6 | 117 | inactive |
| Etv6 (ets variant 6) | 2 | 84 | 84.5 | inactive |
| Fgfr2 (fibroblast growth factor receptor 2) | 1 | 83.4 | 86.3 | inactive |
| Or4k36 (olfactory receptor family 4 subfamily K member 36) | 1 | 59.6 | 44.4 | inactive |
| Or4k36 (olfactory receptor family 4 subfamily K member 36) | 2 | 63.5 | 37.6 | inactive |
| Or4k36 (olfactory receptor family 4 subfamily K member 36) | 3 | 59.3 | 98.6 | inactive |
| Or13c7b (olfactory receptor family 13 subfamily C member 7B) | 1 | 101 | 82.6 | inactive |
| Or13c7b (olfactory receptor family 13 subfamily C member 7B) | 2 | 45.4 | 39.3 | inactive |
| Or13c7b (olfactory receptor family 13 subfamily C member 7B) | 3 | 79.4 | 53.8 | inactive |
| Arhgef4 (Rho guanine nucleotide exchange factor 4) | 1 | 64.1 | 43.1 | inactive |
| Arhgef4 (Rho guanine nucleotide exchange factor 4) | 2 | 61.5 | 70.2 | inactive |
| Arhgef4 (Rho guanine nucleotide exchange factor 4) | 3 | 91.6 | 68.4 | inactive |
| Arhgef4 (Rho guanine nucleotide exchange factor 4) | 4 | 134 | 147 | active |
| Arhgef4 (Rho guanine nucleotide exchange factor 4) | 5 | 114 | 125 | inactive |
| Arhgef4 (Rho guanine nucleotide exchange factor 4) | 6 | 102 | 119 | inactive |
| Smdt1 (single-pass membrane protein with aspartate rich tail 1) | 1 | 70.2 | 65.4 | inactive |
| Smdt1 (single-pass membrane protein with aspartate rich tail 1) | 2 | 72.6 | 63.7 | inactive |
| Smdt1 (single-pass membrane protein with aspartate rich tail 1) | 3 | 47.6 | 80.3 | inactive |
| Orm2 (orosomucoid 2) | 1 | 66.8 | 84.7 | inactive |
| Orm2 (orosomucoid 2) | 2 | 76.7 | 69.4 | inactive |
| Zfp592 (zinc finger protein 592) | 1 | 63.1 | 54 | inactive |
| Zfp592 (zinc finger protein 592) | 2 | 86.6 | 74.4 | inactive |
| Zfp592 (zinc finger protein 592) | 3 | 98.9 | 96.3 | inactive |
| Id1 (inhibitor of DNA binding 1, HLH protein) | 1 | 51.1 | 29 | inactive |
| Id1 (inhibitor of DNA binding 1, HLH protein) | 2 | 65 | 56 | inactive |
| Id1 (inhibitor of DNA binding 1, HLH protein) | 3 | 82.9 | 86.7 | inactive |
| Ccdc38 (coiled-coil domain containing 38) | 1 | 69.1 | 80.1 | inactive |
| Ccdc38 (coiled-coil domain containing 38) | 2 | 69.7 | 98 | inactive |
| Ccdc38 (coiled-coil domain containing 38) | 3 | 74.8 | 86.1 | inactive |
| Nsun2 (NOL1/NOP2/Sun domain family member 2) | 1 | 67.8 | 74.3 | inactive |
| Nsun2 (NOL1/NOP2/Sun domain family member 2) | 2 | 63.2 | 72.5 | inactive |
| Nsun2 (NOL1/NOP2/Sun domain family member 2) | 3 | 36.1 | 43.2 | inactive |

Entries listed so far with an active call:
| gene knocked down | siRNA no. | GFP, % of control | viability (ATP), % of control | call |
| --- | --- | --- | --- | --- |
| Arhgef4 (Rho guanine nucleotide exchange factor 4) | 4 | 134 | 147 | active |

More records:
| gene knocked down | siRNA no. | GFP, % of control | viability (ATP), % of control | call |
| --- | --- | --- | --- | --- |
| Tnfrsf13c (tumor necrosis factor receptor superfamily, member 13c) | 1 | 81.8 | 95.3 | inactive |
| Tnfrsf13c (tumor necrosis factor receptor superfamily, member 13c) | 2 | 106 | 119 | inactive |
| Tnfrsf13c (tumor necrosis factor receptor superfamily, member 13c) | 3 | 171 | 147 | active |
| Tnfrsf13c (tumor necrosis factor receptor superfamily, member 13c) | 4 | 85.8 | 82.5 | inactive |
| Tnfrsf13c (tumor necrosis factor receptor superfamily, member 13c) | 5 | 96.2 | 86.9 | inactive |
| Tnfrsf13c (tumor necrosis factor receptor superfamily, member 13c) | 6 | 82.1 | 95.1 | inactive |
| Kcnab3 | 1 | 62.7 | 41.6 | inactive |
| Kcnab3 | 2 | 59 | 40.3 | inactive |
| Kcnab3 | 3 | 93.1 | 87.2 | inactive |
| Trnt1 (tRNA nucleotidyl transferase, CCA-adding, 1) | 1 | 78.6 | 112 | inactive |
| Trnt1 (tRNA nucleotidyl transferase, CCA-adding, 1) | 2 | 72.1 | 99.9 | inactive |
| AW551984 (expressed sequence AW551984) | 1 | 21 | 27.7 | inactive |
| AW551984 (expressed sequence AW551984) | 2 | 68.1 | 72.2 | inactive |
| AW551984 (expressed sequence AW551984) | 3 | 112 | 137 | inactive |
| Ankrd34c (ankyrin repeat domain 34C) | 1 | 206 | 64 | active |
| Ankrd34c (ankyrin repeat domain 34C) | 2 | 81.3 | 68.3 | inactive |
| Ankrd34c (ankyrin repeat domain 34C) | 3 | 123 | 92.7 | active |
| Rpn1 (ribophorin I) | 1 | 76.7 | 87.2 | inactive |
| Rpn1 (ribophorin I) | 2 | 37.6 | 35.7 | inactive |
| Map2k5 (mitogen-activated protein kinase kinase 5) | 1 | 73.3 | 96.2 | inactive |
| Map2k5 (mitogen-activated protein kinase kinase 5) | 2 | 63.3 | 47.1 | inactive |
| Map2k5 (mitogen-activated protein kinase kinase 5) | 3 | 80.8 | 74.8 | inactive |
| Stk3 (serine/threonine kinase 3) | 1 | 62.5 | 61.6 | inactive |
| Dph6 (diphthamine biosynthesis 6) | 1 | 80.4 | 79.8 | inactive |
| Dph6 (diphthamine biosynthesis 6) | 2 | 82.7 | 65.1 | inactive |
| Dph6 (diphthamine biosynthesis 6) | 3 | 80 | 96.1 | inactive |
| Phf12 (PHD finger protein 12) | 1 | 126 | 35.4 | active |
| Phf12 (PHD finger protein 12) | 2 | 107 | 109 | inactive |
| Phf12 (PHD finger protein 12) | 3 | 202 | 94.1 | active |
| Or51a42 (olfactory receptor family 51 subfamily A member 42) | 1 | 93.5 | 76.1 | inactive |
| Or51a42 (olfactory receptor family 51 subfamily A member 42) | 2 | 123 | 71.5 | active |
| Or51a42 (olfactory receptor family 51 subfamily A member 42) | 3 | 23.8 | 40 | inactive |
| Orai1 (ORAI calcium release-activated calcium modulator 1) | 1 | 73.5 | 110 | inactive |
| Orai1 (ORAI calcium release-activated calcium modulator 1) | 2 | 75.4 | 105 | inactive |
| Orai1 (ORAI calcium release-activated calcium modulator 1) | 3 | 84.4 | 87.9 | inactive |
| Scly (selenocysteine lyase) | 1 | 70.4 | 76.3 | inactive |
| Scly (selenocysteine lyase) | 2 | 64.5 | 65.5 | inactive |
| Scly (selenocysteine lyase) | 3 | 55.7 | 60.9 | inactive |
| Gtsf2 (gametocyte specific factor 2) | 1 | 74.7 | 87.8 | inactive |
| Gtsf2 (gametocyte specific factor 2) | 2 | 76.1 | 79.1 | inactive |
| Gtsf2 (gametocyte specific factor 2) | 3 | 116 | 121 | inactive |
| Prpf4b (pre-mRNA processing factor 4B) | 1 | 41.2 | 39.5 | inactive |
| Slc26a4 | 1 | 125 | 72 | active |
| Slc26a4 | 2 | 125 | 115 | active |
| Slc26a4 | 3 | 86.7 | 77.7 | inactive |
| Or7e166 (olfactory receptor family 7 subfamily E member 166) | 1 | 159 | 94.9 | active |
| Or7e166 (olfactory receptor family 7 subfamily E member 166) | 2 | 94.2 | 56.6 | inactive |
| Or7e166 (olfactory receptor family 7 subfamily E member 166) | 3 | 110 | 101 | inactive |
| Bcl9 (B cell CLL/lymphoma 9) | 1 | 101 | 70.3 | inactive |
| Bcl9 (B cell CLL/lymphoma 9) | 2 | 92.8 | 104 | inactive |
| Bcl9 (B cell CLL/lymphoma 9) | 3 | 76 | 70.7 | inactive |
| Dohh (deoxyhypusine hydroxylase/monooxygenase) | 1 | 99.3 | 92.2 | inactive |
| Dohh (deoxyhypusine hydroxylase/monooxygenase) | 2 | 22.8 | 39.8 | inactive |
| Dohh (deoxyhypusine hydroxylase/monooxygenase) | 3 | 86.4 | 91.3 | inactive |
| Cyp4x1 (cytochrome P450, family 4, subfamily x, polypeptide 1) | 1 | 98.7 | 83.9 | inactive |
| Cyp4x1 (cytochrome P450, family 4, subfamily x, polypeptide 1) | 2 | 83.6 | 96.7 | inactive |
| Cyp4x1 (cytochrome P450, family 4, subfamily x, polypeptide 1) | 3 | 78.9 | 101 | inactive |
| Zfyve27 (zinc finger, FYVE domain containing 27) | 1 | 75.9 | 69.2 | inactive |
| Zfyve27 (zinc finger, FYVE domain containing 27) | 2 | 69.7 | 51.9 | inactive |
| Zfyve27 (zinc finger, FYVE domain containing 27) | 3 | 79.7 | 96.6 | inactive |
| Cdnf (cerebral dopamine neurotrophic factor) | 1 | 89.6 | 79.1 | inactive |
| Cdnf (cerebral dopamine neurotrophic factor) | 2 | 62.6 | 54.7 | inactive |
| Cdnf (cerebral dopamine neurotrophic factor) | 3 | 89 | 112 | inactive |
| Bbs2 (Bardet-Biedl syndrome 2) | 1 | 37.2 | 48 | inactive |
| Bbs2 (Bardet-Biedl syndrome 2) | 2 | 123 | 114 | active |
| Parm1 (prostate androgen-regulated mucin-like protein 1) | 1 | 133 | 83.9 | active |
| Parm1 (prostate androgen-regulated mucin-like protein 1) | 2 | 73.1 | 97.7 | inactive |
| Parm1 (prostate androgen-regulated mucin-like protein 1) | 3 | 132 | 134 | active |
